# Library screen at single concentrations

Chains of the proteins cited; added tags and fusions are not shown.
UniProt P9WPC5, whole entry: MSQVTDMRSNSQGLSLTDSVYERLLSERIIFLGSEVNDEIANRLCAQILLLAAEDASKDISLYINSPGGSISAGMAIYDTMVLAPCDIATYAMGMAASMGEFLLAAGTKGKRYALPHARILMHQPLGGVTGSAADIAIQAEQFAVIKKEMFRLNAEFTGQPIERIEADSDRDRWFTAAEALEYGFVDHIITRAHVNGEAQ
UniProt P9WPC3, whole entry partner: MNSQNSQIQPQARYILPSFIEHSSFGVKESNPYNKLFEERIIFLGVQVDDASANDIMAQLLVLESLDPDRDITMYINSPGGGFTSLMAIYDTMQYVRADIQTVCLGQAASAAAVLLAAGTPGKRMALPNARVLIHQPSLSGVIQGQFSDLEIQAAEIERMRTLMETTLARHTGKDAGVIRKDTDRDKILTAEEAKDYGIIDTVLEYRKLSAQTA

Measurements from “University of Dundee, Small-Polar-MMV Screening Library” (2021), ChEMBL document CHEMBL3988442.

A: 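Assay of Toxoplasma gondii numbers, read through their beta-galactosidase reporter with a colour substrate. Concentration: 10 µM. The record gives no direction; the compounds picked for IC50 retests had high values, so higher reads as fewer parasites. About 67,000 compounds were tested under these conditions; 0.38% (about 260) showed 50% or more at least once.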
B: 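Protease assay of ClpP1P2, read by the AMC dye that it sets free. Target: ClpP1P2, Mycobacterium tuberculosis (UniProt P9WPC5 and UniProt P9WPC3). Tested at 50 µM. Direction is inferred from only a few compounds that gave an IC50; most scored high, so higher reads as stronger inhibition. Most other retested compounds had strongly negative values. About 69,000 compounds were tested under these conditions; 0.015% (about 10) showed 50% or more at least once.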
C: 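Cell assay of Leishmania donovani living inside macrophages; the read-out is not stated. Concentration: 30 µM. The record gives no direction; compounds that gave an IC50 in retests scored well above the rest, so higher reads as stronger inhibition. Size under these conditions: about 69,000 compounds, about 1,000 of them at 50% or above in at least one test.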
D: 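Whole-parasite assay of Trypanosoma brucei over 72 hours; the read-out is not stated. Concentration: 30 µM. Direction is inferred from retests: higher values go with stronger inhibition. Values scatter widely below zero; nearly all retest evidence comes from the higher of the two concentrations used. Size under these conditions: about 64,000 compounds, about 940 of them at 50% or above in at least one test.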

The filed quantity is “Percent Effect” (%). The record does not define 0% and 100%; most values in the screen are far below 50% and negative numbers occur (in some assays of this library far below -100). The compounds are a random part of those screened. Two or more numbers in one place are separate tests of the same structure; such repeats can differ widely. A dash means the value is not listed here; it may have been measured.

| # | SMILES | A | B | C | D |
|---|---|---|---|---|---|
| 1 | `CNc1ccnc(NCC(=O)Nc2cc(C)ccc2OC)n1` | -37.7 | 2.709 | -1.726 | 42.18 |
| 2 | `Cc1ccc(Nc2c(C#N)c(=O)n(C)c(=O)n2C)cc1F` | 15.94 | 4.918 | 19.45 | 4.298 |
| 3 | `Cc1nc(O)cc(CN2C[C@H](NC(=O)C3CCCC3)[C@@H](C3CC3)C2)n1` | 7.188 | -11.71 | -1.359 | -40.9 |
| 4 | `Cc1ccc(CC(=O)N2CCN(CC(O)C(C)(C)C)CC2)cn1` (stereo not drawn) | 18.64 | -12.37 | 30.5 | -2.274 |
| 5 | `CC(C)N(C)CC(=O)Nc1nccn1Cc1ccccc1Cl` | -4.019 | -13.1 | -3.296 | -22.88 |
| 6 | `O=C(CCN1CCCC1C1CCCCC1)N1CCc2sccc2C1` (stereo not drawn) | 1.091 | -0.9978 | 36.25 | 26.47 |
| 7 | `c1csc(CN2CCc3nnc(COc4cncnc4)n3CC2)c1` | - | 2.236 | - | - |
| 8 | `CC(=O)Nc1ccc(SCC(O)COCc2ccccc2)cc1` (stereo not drawn) | -40.61 | -18.06 | -7.295 | - |
| 9 | `O=C(CC1CC1)N1CCC(O)(CN2CCN(c3ccccc3)CC2)C1` (stereo not drawn) | - | -15.25 | -25.49 | - |
| 10 | `CCN(CC)c1ccc(-c2nc(-c3cccc(OC)c3OC)no2)cn1` | -1.762 | -13.88 | 0.5951 | 21.13 |
| 11 | `O=C1NCC2(CCCN(C(=O)c3csc(-c4cccs4)n3)C2)O1` (stereo not drawn) | 10.26 | 11.57 | 16.47 | -30.75 |
| 12 | `Cc1ccoc1C(=O)NC(CC(C)C)C(=O)N1CCC(CO)CC1` (stereo not drawn) | 3.104 | 11.11 | -1.005 | -35.7 |
| 13 | `c1csc(CN2CCO[C@H]3[C@H](OCCN4CCCC4)CC[C@@H]32)n1` | - | 8.004 | - | - |
| 14 | `CC(C)N1CCOCC2(CN(Cc3cccs3)CCO2)C1` (stereo not drawn) | - | -5.867 | - | - |
| 15 | `C1CC1c1nsc(N2CCN(C3CC3)CC2)n1` | -3.175 | -6.403 | 15.11 | -68.99 |
| 16 | `COC(=O)CN(C(=O)c1cc(C)c(F)cc1F)c1cccc(C)n1` | 5.725 | -0.2221 | 1.735 | -24.68 |
| 17 | `CNC(=O)C1CCC2(CCN(c3ncc(C)cn3)CC2)CO1` (stereo not drawn) | -0.6915 | -4.731 | -24.09 | -71.61 |
| 18 | `[H][C@@]12CC[C@@]([H])(C1)N(CC(=O)N1CCN(c3ccc(C)cc3)C(=O)C1)C2` | 8.93 | - | 27.59 | 1.179 |
| 19 | `Cc1ccc(C(=O)NCCS(=O)(=O)N2CCSCC2)n1C` | 14.63 | 3.799 | -40.41 | - |
| 20 | `Cc1nnc(N2CC[C@H]3O[C@H](C(=O)NCc4ccccn4)CC[C@H]32)s1` | - | -4.059 | - | - |
| 21 | `Cn1ccnc1CNC(=O)N(CCCO)C1CCc2ccccc21` (stereo not drawn) | -9.302 | -12.89 | 16 | -0.8221 |
| 22 | `Cc1nsc(NCCNS(=O)(=O)c2ccccc2)n1` | 4.071 | -1.666 | 7.394 | -17.7 |
| 23 | `CCC1CN(CC(=O)Nc2cc(C)nn2C)CCO1` (stereo not drawn) | -4.748 | 10.5 | 13.6 | 1.204 |
| 24 | `CCOCCN1CCN(CCCS(C)(=O)=O)CC1C` (stereo not drawn) | 14.39 | 22.05 | 11.28 | -21.66 |
| 25 | `CCn1ccnc1C1CCN(Cc2cccc(Cl)c2)CC1` | 7.665 | -3.7 | 19.6 | -40.4 |
| 26 | `COc1ccc(Cl)cc1C(=O)N1C[C@H](C(C)C)[C@@H](N)C1` | 0.4244 | -13.8 | 48.98 | 2.637 |
| 27 | `COCc1cc(CNC(=O)c2c(C)c(C)cc(C)c2C)n[nH]1` | -0.3167 | -6.108 | 24.13 | 11.86 |
| 28 | `Cc1c(C2CC(=O)Nc3c2cnn3C(C)C)cnn1C` (stereo not drawn) | 6.199 | -10.8 | 3.485 | 8.75 |
| 29 | `CC(C)c1nc(O)c2nnn(C[C@@H]3CCCN(Cc4cccs4)C3)c2n1` | - | -23.11 | 4.505 | - |
| 30 | `COc1ccc(OCCCNC(=O)NCc2csc(C)n2)cc1` | 12.71 | 3.453 | 23.04 | 14.13 |
| 31 | `COc1cc(CN(C)C(=O)NC2CC2)ccc1SC` | -12.07 | 4.438 | 12.59 | -0.2045 |
| 32 | `Cc1nc2cc(C(=O)N3CCCC(n4ccnc4)C3)ccc2n1C` (stereo not drawn) | -43.1 | -28.91 | -3.183 | -13.63 |
| 33 | `CN(CC(=O)N1CC(C)(C)[C@](O)(C2CC2)C1)Cc1ccncc1` | -12.59 | -4.68 | -8.884 | - |
| 34 | `CC(Cn1cc(Br)cn1)C(=O)Nc1ccc(C(N)=O)cc1` (stereo not drawn) | -1.318 | -1.192 | -10.36 | - |
| 35 | `c1cncc(CN2CCC(c3n[nH]c(C4CC4)n3)CC2)c1` | -0.6952 | 16.08 | -7.259 | -15.91 |
| 36 | `Cn1nc(C(=O)N2CCCC(n3cncn3)C2)ccc1=O` (stereo not drawn) | 2.085 | -3.67 | 10.44 | 21.08 |
| 37 | `Cc1ccc(CCNC(=O)NCCCC(N)=O)c(C)c1` | -11.43 | -7.102 | 22.57 | 13.98 |
| 38 | `Cc1csc(N2CCN(Cc3nnsc3Cl)CC2C)n1` (stereo not drawn) | 5.796 | -14.23 | 11.26 | -20.61 |
| 39 | `CN(Cc1cccs1)C1CCC[C@@H]2CN(C(N)=O)C[C@H]12` (stereo partly drawn) | - | 4.399 | - | - |
| 40 | `Cc1ccccc1S(=O)(=O)N1CCCCC1c1ccn[nH]1` (stereo not drawn) | 7.016 | -2.186 | -6.938 | -18.31 |
| 41 | `Cc1nc(C)c(C(=O)N2CCCC2c2nc(O)cc(C(C)C)n2)s1` (stereo not drawn) | -21.6 | 12.9 | 24.03 and 19.31 | -8.19 |
| 42 | `CCCc1cc(C(=O)N(CC)Cc2ccncc2)[nH]n1` | 1.273 | -3.471 | -1.592 | -47.37 |

Some entries from above, unchanged:

SMILES,A,B,C,D
O=C(CCN1CCCC1C1CCCCC1)N1CCc2sccc2C1 (stereo not drawn),1.091,-0.9978,36.25,26.47
C1CC1c1nsc(N2CCN(C3CC3)CC2)n1,-3.175,-6.403,15.11,-68.99